Test results published in PubChem BioAssay AID504375 (National Center for Advancing Translational Sciences (NCATS), 2011).
About 25 (2%) of roughly 1,600 compounds were called active. Inconclusive results (about 7%) are left out. Calls come from the whole dose curve; as a rule, active = well fitted inhibition curve with a large enough effect; inconclusive = small, poorly fitted or top-dose-only effect, or effect the other way; inactive = no such curve, though single readings can be large or run the other way. This is one part of the list.

Protein sequences, listed by entry. Tags and fused reporters are not part of them.
UniProt Q01196, whole entry, looked up: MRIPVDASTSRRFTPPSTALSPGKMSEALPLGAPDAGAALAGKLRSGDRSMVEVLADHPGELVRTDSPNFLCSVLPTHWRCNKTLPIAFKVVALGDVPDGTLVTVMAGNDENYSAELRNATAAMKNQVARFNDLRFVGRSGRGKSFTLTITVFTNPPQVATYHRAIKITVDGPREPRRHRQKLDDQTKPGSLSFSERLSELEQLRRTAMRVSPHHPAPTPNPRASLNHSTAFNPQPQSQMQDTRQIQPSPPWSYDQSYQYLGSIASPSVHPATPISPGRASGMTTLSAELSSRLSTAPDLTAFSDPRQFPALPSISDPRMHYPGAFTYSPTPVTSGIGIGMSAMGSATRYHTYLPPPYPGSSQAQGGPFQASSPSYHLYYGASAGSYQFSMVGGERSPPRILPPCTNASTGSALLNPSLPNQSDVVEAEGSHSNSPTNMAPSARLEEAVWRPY
UniProt Q13951, whole entry, looked up: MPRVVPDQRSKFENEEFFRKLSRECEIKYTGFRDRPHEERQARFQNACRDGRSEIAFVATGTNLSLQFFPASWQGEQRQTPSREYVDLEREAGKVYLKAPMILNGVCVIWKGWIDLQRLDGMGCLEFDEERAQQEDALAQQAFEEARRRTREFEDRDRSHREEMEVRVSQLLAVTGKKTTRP

molecular target: Runt-related transcription factor 1 (Homo sapiens) + Core-binding factor subunit beta (Homo sapiens) (UniProt Q01196+Q13951); test: qHTS Assay for Compounds Blocking the Interaction Between CBF-beta and RUNX1 for the Treatment of Acute Myeloid Leukemia: Hit Validation with Orthogonal Assay; settings: CBFbeta-RUNX1 binding orthogonal assay, biochemical; series mostly up to 41 µM; activity change, negative = inhibition: at the top concentration
How it was run: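 Compound was incubated for 30 min with biotin-RUNX1 plus His6-CBF-beta at 30 nM per protein. Binding was then detected by TR-FRET between terbium anti-His antibody and 5 nM streptavidin-XL665, read after 90 min, in the same buffer as the AlphaScreen primary assay.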
% is set by controls: 0 for no effect and ±100 for the full control effect; potency is the fitted concentration of half-maximal effect.

Activity change, negative = inhibition, inactive:
CCOC(=O)CN(C(=O)c1ccccc1[N+](=O)[O-])C(C)(C)C -0.6%
COCCCn1c(=O)/c(=C\c2ccccc2OC(C)C)s/c1=C(/C#N)C(=O)Nc1ccc(C(=O)O)cc1 3.47%
COc1cc(OC)c(C2C(C#N)=C(C)NC(C)=C2C#N)c(C(=O)O)c1 4.34%
Cc1onc(-c2c(Cl)cccc2Cl)c1C(=O)Nc1nc(C(C)(C)C)cs1 6.68%
c1csc(-c2nc3ccccc3s2)c1 4.71%
CSc1cccc(NC(=O)Nc2ccccc2C(N)=O)c1 3.24%
COC(=O)c1[nH]c(C)c(/C(O)=C2\C(=O)C(=O)N(CCN3CCOCC3)C2c2ccc(C)o2)c1C (configuration not stated) -1.06%
CN(C)c1cc(-c2ccc(F)cc2)oc(=O)c1Cl 15.1%
Cc1nn2c(NCCOCCO)c3c(nc2c1-c1ccccc1)CCC3 -12.1%
N#C/C(=C\c1cccnc1)c1ccc(Br)cc1 20.2%
Nc1cccnc1Oc1ccccc1F 0.0122%
O=C(NN1C(=O)CSC1=S)C(=O)NN1C(=O)CSC1=S 2.9% [at 82.4 µM]
CC(=O)Nc1ccc(OCCOc2ccc([N+](=O)[O-])cc2)cc1 14.9%
O=C(O)/C=C/C(=O)Nc1ccc(OC(F)(F)F)cc1 -0.392%
N#Cc1c(-c2cccnc2)c2c([nH]c1=O)-c1ccccc1OC2 26.4%
C=CCc1cc(Cl)ccc1OC(=O)Nc1cccc(Cl)c1 18%
Cc1onc(-c2c(F)cccc2Cl)c1C(=O)N1CCSCC1 17.9%
CCOC(=O)C1CC(C)=C(C)CC1C(=O)O (configuration not stated) -4.61%
COC(=O)c1cc(NS(=O)(=O)c2ccc(F)cc2)ccc1N1CCOCC1 -13.2%
O=C(O)/C=C/C(=O)Nc1ccc(N2CCOCC2)nc1N1CCOCC1 30.7%
O=C(O)c1cnc2[nH]c3ccccc3n2c1=O 11.2%
CN1c2ccccc2C(=O)/C(=C\Nc2ccc(F)cc2)S1(=O)=O 3.72%
CCOC(=O)N1CCC(NC(=O)CCCC(=O)O)CC1 -4.06%
COc1cc(/C=N/n2c(-c3ccccc3)n[nH]c2=S)cc(OC)c1O 9.69%
CCN(CC)S(=O)(=O)c1ccc(/C=C/C(=O)Nc2ccc(N3CCOCC3)cc2)cc1 8.12%
CC1(c2ccccc2)O[C@@H]2C[C@H]3[C@@H]4CCC5=CC(=O)C=C[C@]5(C)[C@@]4(F)[C@@H](O)C[C@]3(C)[C@]2(C(=O)CO)O1 (some centres not stated) -12.2%
NCC(=O)c1cccc2ccc[n+]([O-])c12 14.6%
N#CCCN1CCCc2cc(N=Nc3ccc(C(F)(F)F)cc3)ccc21 27.5%
CCN(CC)CCNC(=O)c1ccc2c(c1NCCO)C(=O)c1ccccc1C2=O 76.8%
CC1CC(C)(C)OC(C[N+]2(C)CCCCC2)O1 (configuration not stated) -15.5%
Cc1cc(C)cc(OCc2ccc(C(=O)NN)o2)c1 -6.13%
Cc1nc(-c2ccc(S(=O)(=O)N3CCN(CCc4ccccc4)CC3)s2)cs1 -7.22%
CCOC(=O)Cc1csc(NC(=O)Nc2cccc(OC)c2)n1 -11.5%
CCOC(=O)C1CCCN(C(=O)c2csc(-c3ccc4c(c3)CCO4)n2)C1 (configuration not stated) 9.04%
O=C(Nc1ccc(F)cc1F)Nc1csc2ccccc12 -13.3%
Cc1onc(-c2ccccc2)c1C(=O)Oc1ccccc1 6.45%
COc1ccccc1N1CC(C)(C)C(=O)N(C(=O)c2ccc(Cl)cc2)C1=S 12%
CCCc1c(NC(=O)Nc2ccc(F)cc2)cnn1-c1ccc(Cl)cc1 -9.04%
N#Cc1c(N)nc2c(c1-c1ccc(F)cc1)CCC2 0.367%
CC(C)(C)C(=O)Nc1ccccc1C(=O)NCc1cccnc1 7.35%
COc1cc(/C=C/c2nc3ccc([N+](=O)[O-])cc3s2)ccc1OCC(=O)O 18.5%
COc1ccc(N/C=C2\C(=O)c3c(sc(C)c3C)N(C)S2(=O)=O)cc1 2.26%
c1ccc(C2=Nn3c(Cn4nnc5ccccc54)nnc3SC2)cc1 -10.8%
O=C(O)C1CCC(=O)N1C(=O)OCc1ccccc1 (configuration not stated) -17.6%
CN(c1ccccc1)c1nc(N)c([N+](=O)[O-])c(N2CCCCC2)n1 -2.53%
COC(=O)CSc1ncnc2c(C)csc12 -9.2%
Cc1nn(Cc2ccc(C(=O)NN)cc2)c(C)c1Cl -1.58%
O=C(NNc1c(Cl)cc(Cl)cc1Cl)c1n[nH]c(=O)c2ccccc12 0.159%
Cc1cccc(-c2n[nH]c(=S)n2/N=C/c2cccs2)c1 11.6%
CC(C)(C)c1csc(Sc2ncccc2[N+](=O)[O-])n1 24.4%
Cc1cccc(NC(=S)NNC(=O)c2cccc([N+](=O)[O-])c2)c1 18.9%
O=C(Nc1ccc2[nH]ccc2c1)c1ccccc1 6.12%
Cc1ccc(C)c(N2CCN(c3ccncc3N)CC2)c1 11.2%
CC1=CC(=O)C(C(C)=Nc2ccccc2Cl)C(=O)O1 (configuration not stated) -0.147%
S=c1[nH]nc(Nc2cccc3ccccc23)s1 7.23%
CCCCC(=O)Nc1ccc2c(c1)nc1n2CCN(CCOC)C1 -6.69%
C=C(C)C(=O)Nc1cccnc1Oc1ccc(F)cc1F -3.93%
Cc1ccc(OCc2ccc(C(=O)NN)o2)cc1C 5.19%
CC(C)CCN1NC2(CCCC(C)C2)NC1=S (configuration not stated) -8.73%
Nc1cc(Cl)nnc1Cl 12.8%
Cc1nn2c(NCCN(C)C)c3c(nc2c1-c1ccccc1)CCCC3 -6.26%
CCCc1ccc(C(=O)NC(=O)c2ccccc2O)cc1 -12.4%
COC(=O)c1ccc(COc2ccc(C)cc2[N+](=O)[O-])o1 23.5%
COc1ccccc1OCc1ccc(C(=O)NN)o1 0.502%
Cc1nn2c(NCc3ccccn3)cc(C(C)C)nc2c1-c1ccccc1 -15.8%
O=C1COc2ccc(C(=O)CSc3ccccc3C(=O)O)cc2N1 13.9%
CCOC(=O)c1cn[nH]c1NC(=S)Nc1ccc(OC)cc1 -10.9%
COc1cccc(/C=C2\SC(=S)N(C(C(=O)O)c3ccccc3)C2=O)c1OC (configuration not stated) 0.232%
CC12CCC(C/C1=N\OC(=O)c1c(F)cccc1F)C2(C)C (configuration not stated) -4.22%
COc1ccc(-c2nnc(SCC(=O)N/N=C/c3ccccc3C(=O)O)n2-c2ccc(Cl)cc2)cc1 -15.6%
O=C(Nc1ccc2ccccc2c1)c1cccc(F)c1 7.92%

Among those listed so far, five have a furan ring, fused or not.
Activity change, negative = inhibition, inactive:
COC(=O)c1[nH]c(C)c(/C(O)=C2\C(=O)C(=O)N(CCN3CCOCC3)C2c2ccc(C)o2)c1C (configuration not stated) -1.06%
Cc1cc(C)cc(OCc2ccc(C(=O)NN)o2)c1 -6.13%
Cc1ccc(OCc2ccc(C(=O)NN)o2)cc1C 5.19%
COC(=O)c1ccc(COc2ccc(C)cc2[N+](=O)[O-])o1 23.5%
COc1ccccc1OCc1ccc(C(=O)NN)o1 0.502%

Following part.

Potency, active:
O=C(O)c1cc(O)c2c(c1)[C@H]([C@H]1c3cc(C(=O)O)cc(O)c3C(=O)c3c(O[C@@H]4OC(CO)C(O)C(O)C4O)cccc31)c1cccc(O[C@@H]3OC(CO)C(O)C(O)C3O)c1C2=O (some centres not stated) 2510 nM
